From PubChem BioAssay AID264 (DTP/NCI, 2004) come the findings set out here.

Molecules are shown by their SMILES. The list is a part of this screen's results and no random one: it is rich in T/C values a quarter to a half above the control, in often repeated tests (any T/C) and in doses without a T/C. Other doses and runs of a compound stand elsewhere. T/C is the treated group as % of the vehicle group. Schedules are NCI's codes, taken here to give the interval after Q, in days (D) or hours (H), and the number of doses after X. Some T/C values are followed by the survivors on the day toxicity was checked, most often the fifth; without a count, all were alive then. Some entries give survivors of the animals treated and no T/C: the source holds a T/C of zero for them, seemingly a mark for toxic or unscored doses. Survivors were counted at the toxicity check, usually on the fifth day, unless a day is given; later deaths do not show. Some entries hold several experiments; the results are listed from low to high.

In the test the test system is nude mice, LX-1 lung xenograft intrarenal, tumor weight T/C. Kind of test: NCI In Vivo Anticancer Drug Screen. Data for tumor model Human Lung LX-1 Xenograft (intrarenal inoculation) in NU/NU Swiss (nude) mice. As to conditions: T/C endpoint: mean tumor weight change, higher T/C = larger tumour; for T/C: evaluated on day 11. Summed up:
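Readout: T/C, i.e. treated-group tumor measurement over vehicle-control measurement. Mice bearing transplantable tumors were dosed with compound or vehicle.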
In general terms: A xenograft is tissue or cells of one species grown in another, often human tumour cells in immunodeficient mice.

Setting [1] is: dose: 25.0 mg/kg/injection, schedule: Q01DX010 (sc), vehicle: saline.

On to `O=NN(CCCl)C(=O)NC1CCCCC1`, for which the T/C (dose: 12.5 mg/kg/injection, schedule: Q04DX003 (sc), vehicle: Klucel (hydroxypropylcellulose) (HPC)) was 128 % of control. The survivor count reads like this: (dose: 32.0 mg/kg/injection, schedule: Q01DX010 (ip), vehicle: saline with Tween-80) 0 of 3 on day 11; (dose: 64.0 mg/kg/injection, schedule: Q01DX010 (sc), vehicle: saline with Tween-80) 1 of 3 on day 11; (dose: 106.65 mg/kg/injection, schedule: Q04DX003 (ip), vehicle: saline with Tween-80) 0 of 3 on day 11.
Consider `CC1=NN(c2cccc(S(=O)(=O)O)c2)C(=O)C1N=Nc1cc(Cl)cc(S(=O)(=O)O)c1O.CC1=NN(c2cccc(S(=O)(=O)O)c2)C(=O)C1N=Nc1cc(Cl)cc(S(=O)(=O)O)c1O.[Cr]` (stereo not drawn), for which the survivor count (dose: 1200.0 mg/kg/injection, schedule: Q04DX003 (sc), vehicle: saline) is on record as 1 of 6 on day 11.
Consider `Cc1cc2c(c3oc(C4(C)OC4C4OC4C)cc(=O)c13)C(=O)c1c(O)c(C3CC(C)(N(C)C)C(O)C(C)O3)cc(C3CC(N(C)C)C(O)C(C)O3)c1C2=O` (stereo not drawn), for which the survivor count was 1 of 3 on day 11 (dose: 0.13 mg/kg/injection, schedule: Q01DX010 (sc), vehicle: saline) and 0 of 3 on day 11 (dose: 0.25 mg/kg/injection, schedule: Q01DX010 (sc), vehicle: saline).
Consider `CC(=O)C1(O)Cc2c(O)c3c(c(O)c2C(OC2CC(N)C(O)C(C)O2)C1)C(=O)c1ccccc1C3=O` (stereo not drawn), for which the T/C is 140 % of control (dose: 1.0 mg/kg/injection, schedule: Q04DX003 (sc), vehicle: water) and 144 % of control [4 of 6 alive on day 11] (dose: 2.0 mg/kg/injection, schedule: Q04DX003 (sc), vehicle: water). In addition, the survivor count (dose: 4.0 mg/kg/injection, schedule: Q04DX003 (sc), vehicle: water) is recorded as 0 of 6 on day 11.
Take `CC1(C)N=C(N)N=C(N)N1c1ccc(CCCCc2ccc(S(=O)(=O)F)cc2Cl)c(Cl)c1`: the survivor count reads like this: (dose: 12.5 mg/kg/injection, schedule: Q01DX010 (sc), vehicle: saline) 1 of 3 on day 11; under setting [1], 1 of 3 on day 11; (dose: 50.0 mg/kg/injection, schedule: Q01DX010 (sc), vehicle: saline) 0 of 3 on day 11 and 1 of 3 on day 11; (dose: 100.0 mg/kg/injection, schedule: Q01DX010 (sc), vehicle: saline) 0 of 3 on day 11. In addition, under setting [1], the T/C was 142 % of control.
As to `Cc1ncc([N+](=O)[O-])n1CCSC(N)=O`, the survivor count runs as follows: (dose: 100.0 mg/kg/injection, schedule: Q01DX010 (sc), vehicle: saline with Tween-80) 1 of 3 on day 11; (dose: 200.0 mg/kg/injection, schedule: Q01DX010 (sc), vehicle: saline with Tween-80) 0 of 3 on day 11; (dose: 400.0 mg/kg/injection, schedule: Q01DX010 (sc), vehicle: saline with Tween-80) 0 of 3 on day 11.
Take `Nc1ncnc2c1ccn2C1OC(CO)C(O)C1O` (stereo not drawn): the survivor count (dose: 8.0 mg/kg/injection, schedule: Q01DX010 (sc), vehicle: Klucel (hydroxypropylcellulose) (HPC)) is given as 0 of 3 on day 11.
As to `CNC(=O)OCc1c(COC(=O)NC)c(C)n(-c2ccc(OC)cc2)c1C`, where the note is “dose: 800.0 mg/kg/injection, schedule: Q01DX010 (sc), vehicle: Klucel (hydroxypropylcellulose) (HPC)”, the survivor count is 0 of 6 on day 11.
In the case of `C=C1C(=O)O[C@@H]2[C@H](O)[C@@H](C)[C@@H]3C=CC(=O)[C@@]3(C)[C@H](OC(=O)C=C(C)C)[C@H]12`, the survivor count (dose: 75.0 mg/kg/injection, schedule: Q04DX003 (sc), vehicle: saline with Tween-80) is 2 of 6 on day 11.
As for `Nc1n[n+](-c2ccc(Cl)cc2)no1`, for the setting “dose: 50.0 mg/kg/injection, schedule: Q04DX003 (sc), vehicle: water”, the T/C was 135 % of control. Moreover, for the setting “dose: 200.0 mg/kg/injection, schedule: Q04DX003 (sc), vehicle: water”, the survivor count is given as 0 of 6 on day 11.
